Earlier results in patent US20220283165A1, “Methods of Enhancing Immunogenicity of Cancers” (The Board of Trustees of the Leland Stanford Junior …, priority 2019, published 2022).
For at least one compound, name, drawing or mass did not settle the structure.

Chains of the proteins cited; added tags and fusions are not shown. Lines headed by an entry give the natural chain unless they say otherwise; changes in a name come on top.
UniProt P01106: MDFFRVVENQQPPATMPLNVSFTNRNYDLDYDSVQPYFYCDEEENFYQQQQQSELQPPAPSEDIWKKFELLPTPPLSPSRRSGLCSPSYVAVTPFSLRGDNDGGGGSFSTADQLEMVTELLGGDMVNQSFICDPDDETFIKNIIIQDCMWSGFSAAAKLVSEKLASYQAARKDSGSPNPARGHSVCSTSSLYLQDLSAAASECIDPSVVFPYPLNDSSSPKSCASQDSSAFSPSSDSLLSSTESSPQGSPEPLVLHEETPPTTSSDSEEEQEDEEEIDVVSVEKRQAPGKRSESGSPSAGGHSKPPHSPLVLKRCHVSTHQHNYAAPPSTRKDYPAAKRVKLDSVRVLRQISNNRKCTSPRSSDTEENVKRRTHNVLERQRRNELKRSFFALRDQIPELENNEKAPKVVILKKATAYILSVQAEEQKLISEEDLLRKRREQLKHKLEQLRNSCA

Biological target: T1, Myc-Max complex (Homo sapiens, UniProt P01106)
T1 construct: host or cells: HL60 cells (for 10058-F4 only)
Settings: cited from earlier work

**Q.** Which “inhibition of Myc-Max complexes” value does the source give for `CC1=C(O)C(=O)C=C2C1=CC=C1[C@@]2(C)CC[C@@]2(C)[C@@H]3C[C@](C)(C(=O)O)CC[C@]3(C)CC[C@]12C` [Celastrol] here?
**A.** directly inhibit Myc-Max complexes
